Measured values taken from patent publication US20260021186A1, “Fatty Acid-D-Amino Acid Peptides Conjugates as Anaplerotic Compounds for Use in Treating Propionic Acidemia, Methylmalonic Acidurias, and Energy Metabolic Disorders” (University of Pittsburgh - Of the Commonwealth System of …, priority 2022, published 2026).
Some results were stated once for a whole list of compounds, not compound by compound.

Test system: PA patient cells, Fb859
Assay: Measurement of mitochondrial respiration (Seahorse XF MitoStress test, OCR)
Assay type: cell-based, human
Details: FIGS. 13A-13H; varying concentrations
Description: Measurement of Mitochondrial Respiration Seahorse: Fb859 cells were grown in regular DMEM media until 85-90% confluency. The cells were harvested and seeded at a concentration of 25,000 cells/80 μl (n=8 replicates) in poly-D lysine coated XFe seahorse 96well plate in regular DMEM media and incubated overnight at 37° C. in a 5% CO2 incubator. Following day, the culture media was replaced in designated wells with the following for 72 h:180 μl of Specialty Media A (seahorse XFDMEM base media+10% fat stripped FBS+Glucose+sodium pyruvate+L-glutamine+0.5 mM carnitine). 180 μl of Specialty Media B (scahorse XFDMEM base media+10% stripped FBS+0.5 mM carnitine and no added glucose, sodium pyruvate or glutamine). 180 μl of Specialty media B containing experimental compounds. After 72 h incubation the Specialty media A & B was replaced in respective designated wells with 180 μL Seahorse XF DMEM base media containing glucose, sodium pyruvate. […] OCR was determined (Seahorse XF MitoStress test). Finally, cells were lysed, and protein content was determined. […]
Measurement of Mitochondrial Respiration: Control Fb826 and Patient Fb859 cells were grown in regular DMEM media without adding extra glutamine until 85-90% confluency. […] Oxygen consumption rate (OCR) was determined (Seahorse XF MitoStress test). Finally, cells were lysed, and protein content was determined. […]

SMILES	change in spare capacity
C[C@@H](NC(=O)CCCCC(=O)O)C(=O)N[C@H](Cc1c[nH]cn1)C(=O)O [PMA010, 6-(((R)-1-(((R)-1-carboxy-2-(1H-imidazol-4-yl)ethyl)amino)-1-oxopropan-2-yl)amino)-6-oxohexanoic acid]	3-4 times the untreated
CC(C(=O)O)C(=O)N[C@H](C)C(=O)N[C@H](Cc1c[nH]cn1)C(=O)O (stereo partly drawn) [PMA011, 3-(((R)-1-(((R)-1-carboxy-2-(1H-imidazol-4-yl)ethyl)amino)-1-oxopropan-2-yl)amino)-2-methyl-3-oxopropanoic acid]	3-4 times the untreated
